Among the data in the supplement of paper PMC10849652 are log2 fold change values, retold here.

Chains of the proteins cited; added tags and fusions are not shown. Lines headed by an entry give the natural chain unless they say otherwise; changes in a name come on top.
UniProt P56962: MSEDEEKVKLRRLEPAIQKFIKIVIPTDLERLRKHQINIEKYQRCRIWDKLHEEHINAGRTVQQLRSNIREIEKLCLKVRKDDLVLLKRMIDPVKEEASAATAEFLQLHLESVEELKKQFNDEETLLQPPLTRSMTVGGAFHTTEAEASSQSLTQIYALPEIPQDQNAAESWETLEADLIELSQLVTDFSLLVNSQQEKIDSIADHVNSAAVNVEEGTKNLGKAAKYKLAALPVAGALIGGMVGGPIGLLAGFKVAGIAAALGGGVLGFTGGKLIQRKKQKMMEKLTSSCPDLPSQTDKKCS
UniProt Q4KMP7: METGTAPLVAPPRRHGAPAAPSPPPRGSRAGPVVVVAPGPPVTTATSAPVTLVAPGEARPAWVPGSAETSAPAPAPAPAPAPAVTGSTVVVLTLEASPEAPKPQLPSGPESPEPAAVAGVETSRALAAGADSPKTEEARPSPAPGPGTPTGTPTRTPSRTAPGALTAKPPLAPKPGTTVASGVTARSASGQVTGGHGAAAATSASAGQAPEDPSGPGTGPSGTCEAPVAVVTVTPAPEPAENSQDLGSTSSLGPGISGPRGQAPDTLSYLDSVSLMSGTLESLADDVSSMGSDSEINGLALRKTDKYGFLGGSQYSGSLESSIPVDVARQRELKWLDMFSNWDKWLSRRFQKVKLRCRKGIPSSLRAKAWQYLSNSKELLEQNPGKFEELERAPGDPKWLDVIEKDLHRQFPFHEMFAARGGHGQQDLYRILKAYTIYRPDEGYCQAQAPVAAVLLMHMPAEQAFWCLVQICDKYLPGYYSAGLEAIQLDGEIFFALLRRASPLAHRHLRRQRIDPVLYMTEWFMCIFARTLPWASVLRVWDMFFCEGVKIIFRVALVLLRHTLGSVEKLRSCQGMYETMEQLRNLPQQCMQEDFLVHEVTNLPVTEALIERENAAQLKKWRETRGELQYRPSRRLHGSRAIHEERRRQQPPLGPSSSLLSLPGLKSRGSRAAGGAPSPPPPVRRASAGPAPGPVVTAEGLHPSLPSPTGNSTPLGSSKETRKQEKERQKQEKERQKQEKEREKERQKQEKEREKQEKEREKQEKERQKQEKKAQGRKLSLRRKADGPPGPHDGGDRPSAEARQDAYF
UniProt Q15633: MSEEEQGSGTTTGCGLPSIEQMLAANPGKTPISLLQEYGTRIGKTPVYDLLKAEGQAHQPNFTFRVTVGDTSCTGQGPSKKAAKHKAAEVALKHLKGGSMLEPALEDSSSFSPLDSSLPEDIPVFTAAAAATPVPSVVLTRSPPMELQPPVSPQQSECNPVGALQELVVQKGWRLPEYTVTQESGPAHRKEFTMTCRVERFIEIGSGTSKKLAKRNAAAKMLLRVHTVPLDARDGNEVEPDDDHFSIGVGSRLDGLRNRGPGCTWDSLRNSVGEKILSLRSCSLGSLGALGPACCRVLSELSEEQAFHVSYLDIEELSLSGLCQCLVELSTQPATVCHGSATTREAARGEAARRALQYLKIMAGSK
UniProt Q8NHG7: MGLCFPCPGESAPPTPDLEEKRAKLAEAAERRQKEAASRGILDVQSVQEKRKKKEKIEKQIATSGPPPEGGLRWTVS
UniProt O75410: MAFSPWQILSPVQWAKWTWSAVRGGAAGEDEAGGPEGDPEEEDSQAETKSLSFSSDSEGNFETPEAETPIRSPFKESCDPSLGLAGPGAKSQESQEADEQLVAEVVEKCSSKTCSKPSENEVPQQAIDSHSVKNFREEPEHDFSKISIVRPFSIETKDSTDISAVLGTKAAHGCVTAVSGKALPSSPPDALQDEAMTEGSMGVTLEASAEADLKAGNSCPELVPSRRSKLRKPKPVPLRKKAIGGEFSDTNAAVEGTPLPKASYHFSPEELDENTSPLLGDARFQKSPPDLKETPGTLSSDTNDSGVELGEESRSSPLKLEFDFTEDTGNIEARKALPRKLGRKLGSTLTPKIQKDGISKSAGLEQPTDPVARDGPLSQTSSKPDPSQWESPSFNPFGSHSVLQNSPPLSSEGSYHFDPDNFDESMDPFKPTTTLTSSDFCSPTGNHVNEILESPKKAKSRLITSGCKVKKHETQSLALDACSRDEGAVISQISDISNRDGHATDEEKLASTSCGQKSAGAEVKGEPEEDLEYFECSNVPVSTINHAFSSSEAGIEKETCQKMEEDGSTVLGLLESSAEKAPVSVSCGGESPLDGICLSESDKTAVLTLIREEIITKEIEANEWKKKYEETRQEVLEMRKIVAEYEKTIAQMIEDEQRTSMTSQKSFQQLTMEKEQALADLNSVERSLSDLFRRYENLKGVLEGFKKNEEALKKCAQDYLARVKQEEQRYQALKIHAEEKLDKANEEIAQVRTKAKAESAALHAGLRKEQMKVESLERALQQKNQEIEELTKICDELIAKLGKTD
UniProt O60506: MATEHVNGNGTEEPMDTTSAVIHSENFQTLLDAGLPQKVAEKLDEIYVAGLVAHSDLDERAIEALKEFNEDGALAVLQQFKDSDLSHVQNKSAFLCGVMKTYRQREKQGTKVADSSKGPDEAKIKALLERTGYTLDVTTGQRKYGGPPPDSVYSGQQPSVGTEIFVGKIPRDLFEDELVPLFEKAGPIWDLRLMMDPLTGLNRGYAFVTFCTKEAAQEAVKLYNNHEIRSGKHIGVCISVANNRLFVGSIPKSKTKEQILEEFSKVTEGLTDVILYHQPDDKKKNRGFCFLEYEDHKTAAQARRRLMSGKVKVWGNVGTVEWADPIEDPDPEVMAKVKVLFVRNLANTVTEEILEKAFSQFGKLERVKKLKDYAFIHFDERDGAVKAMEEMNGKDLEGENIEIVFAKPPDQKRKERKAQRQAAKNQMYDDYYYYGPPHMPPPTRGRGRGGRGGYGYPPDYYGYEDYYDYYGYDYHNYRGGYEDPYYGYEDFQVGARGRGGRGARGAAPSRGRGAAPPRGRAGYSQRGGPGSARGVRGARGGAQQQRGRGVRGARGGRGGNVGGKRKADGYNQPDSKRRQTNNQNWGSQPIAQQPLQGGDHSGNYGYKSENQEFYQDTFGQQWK
UniProt Q9UNE7: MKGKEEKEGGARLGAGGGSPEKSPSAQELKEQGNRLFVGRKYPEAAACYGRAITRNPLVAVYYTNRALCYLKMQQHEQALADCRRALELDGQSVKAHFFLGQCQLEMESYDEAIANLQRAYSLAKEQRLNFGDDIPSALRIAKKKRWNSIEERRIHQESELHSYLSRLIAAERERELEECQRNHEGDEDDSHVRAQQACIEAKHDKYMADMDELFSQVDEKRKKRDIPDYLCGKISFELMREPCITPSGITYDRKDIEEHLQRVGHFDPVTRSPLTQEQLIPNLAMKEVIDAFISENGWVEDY
UniProt Q9UH99: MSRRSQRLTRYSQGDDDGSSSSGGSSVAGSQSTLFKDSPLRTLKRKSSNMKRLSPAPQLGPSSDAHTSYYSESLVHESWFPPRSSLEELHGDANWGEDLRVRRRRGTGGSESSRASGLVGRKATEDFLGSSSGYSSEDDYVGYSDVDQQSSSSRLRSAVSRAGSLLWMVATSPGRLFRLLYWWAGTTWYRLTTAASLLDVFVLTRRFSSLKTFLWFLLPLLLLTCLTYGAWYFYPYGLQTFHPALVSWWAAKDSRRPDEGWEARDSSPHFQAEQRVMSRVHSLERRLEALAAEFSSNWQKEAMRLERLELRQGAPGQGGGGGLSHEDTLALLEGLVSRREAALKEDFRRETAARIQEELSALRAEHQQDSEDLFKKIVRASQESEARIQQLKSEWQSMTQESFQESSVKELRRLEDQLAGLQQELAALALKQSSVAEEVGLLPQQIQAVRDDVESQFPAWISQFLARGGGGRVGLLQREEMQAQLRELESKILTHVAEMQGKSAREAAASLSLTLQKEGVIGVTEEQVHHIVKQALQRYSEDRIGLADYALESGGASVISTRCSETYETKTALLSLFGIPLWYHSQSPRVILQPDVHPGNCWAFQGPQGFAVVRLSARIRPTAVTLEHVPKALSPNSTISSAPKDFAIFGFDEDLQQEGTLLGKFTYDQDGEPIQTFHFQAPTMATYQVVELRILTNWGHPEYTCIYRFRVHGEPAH
UniProt A2RTX5: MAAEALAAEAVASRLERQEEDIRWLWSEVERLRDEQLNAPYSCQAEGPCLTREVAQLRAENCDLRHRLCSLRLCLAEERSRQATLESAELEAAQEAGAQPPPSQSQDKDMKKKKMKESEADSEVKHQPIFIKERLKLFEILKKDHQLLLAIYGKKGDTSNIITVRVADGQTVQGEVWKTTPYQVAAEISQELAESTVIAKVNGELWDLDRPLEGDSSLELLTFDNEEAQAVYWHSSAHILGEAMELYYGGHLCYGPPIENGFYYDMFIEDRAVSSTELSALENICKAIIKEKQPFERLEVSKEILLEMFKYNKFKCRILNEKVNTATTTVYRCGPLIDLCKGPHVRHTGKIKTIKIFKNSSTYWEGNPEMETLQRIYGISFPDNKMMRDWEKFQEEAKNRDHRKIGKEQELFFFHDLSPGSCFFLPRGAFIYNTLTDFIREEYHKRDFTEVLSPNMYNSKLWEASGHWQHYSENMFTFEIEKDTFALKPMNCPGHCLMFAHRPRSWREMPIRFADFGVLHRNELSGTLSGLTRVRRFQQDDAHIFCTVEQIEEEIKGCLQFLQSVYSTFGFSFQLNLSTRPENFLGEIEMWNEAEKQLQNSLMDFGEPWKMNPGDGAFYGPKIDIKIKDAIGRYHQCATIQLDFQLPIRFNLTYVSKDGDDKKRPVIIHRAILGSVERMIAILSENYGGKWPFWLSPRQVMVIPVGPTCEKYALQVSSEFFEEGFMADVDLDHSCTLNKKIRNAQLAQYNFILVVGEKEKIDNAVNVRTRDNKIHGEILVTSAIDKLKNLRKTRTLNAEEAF
UniProt Q86Y82: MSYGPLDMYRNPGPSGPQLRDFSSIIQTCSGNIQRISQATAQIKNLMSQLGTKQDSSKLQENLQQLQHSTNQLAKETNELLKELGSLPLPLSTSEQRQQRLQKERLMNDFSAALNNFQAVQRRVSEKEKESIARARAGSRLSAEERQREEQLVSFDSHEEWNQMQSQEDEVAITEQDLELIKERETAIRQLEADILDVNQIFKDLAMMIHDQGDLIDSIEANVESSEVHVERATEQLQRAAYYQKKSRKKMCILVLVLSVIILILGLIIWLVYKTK
UniProt Q13188: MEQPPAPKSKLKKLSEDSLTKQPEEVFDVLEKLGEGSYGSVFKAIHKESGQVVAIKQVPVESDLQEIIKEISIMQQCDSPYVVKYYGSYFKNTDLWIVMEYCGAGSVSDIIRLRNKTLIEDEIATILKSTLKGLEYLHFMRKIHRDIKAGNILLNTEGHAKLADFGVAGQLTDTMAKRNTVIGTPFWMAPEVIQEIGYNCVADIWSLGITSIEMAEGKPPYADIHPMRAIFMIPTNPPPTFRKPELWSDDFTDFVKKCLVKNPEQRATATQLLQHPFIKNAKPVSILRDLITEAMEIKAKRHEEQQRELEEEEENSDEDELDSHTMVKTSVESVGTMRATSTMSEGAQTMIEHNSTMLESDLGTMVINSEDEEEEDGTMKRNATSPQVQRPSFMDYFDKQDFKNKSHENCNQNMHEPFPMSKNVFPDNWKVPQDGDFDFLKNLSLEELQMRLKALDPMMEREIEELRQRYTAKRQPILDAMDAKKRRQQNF
UniProt P37802: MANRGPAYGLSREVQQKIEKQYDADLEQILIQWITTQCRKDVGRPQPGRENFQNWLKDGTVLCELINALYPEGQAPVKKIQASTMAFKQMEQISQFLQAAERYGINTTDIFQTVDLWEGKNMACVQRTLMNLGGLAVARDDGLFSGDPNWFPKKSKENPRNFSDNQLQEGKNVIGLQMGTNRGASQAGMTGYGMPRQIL
UniProt Q15833: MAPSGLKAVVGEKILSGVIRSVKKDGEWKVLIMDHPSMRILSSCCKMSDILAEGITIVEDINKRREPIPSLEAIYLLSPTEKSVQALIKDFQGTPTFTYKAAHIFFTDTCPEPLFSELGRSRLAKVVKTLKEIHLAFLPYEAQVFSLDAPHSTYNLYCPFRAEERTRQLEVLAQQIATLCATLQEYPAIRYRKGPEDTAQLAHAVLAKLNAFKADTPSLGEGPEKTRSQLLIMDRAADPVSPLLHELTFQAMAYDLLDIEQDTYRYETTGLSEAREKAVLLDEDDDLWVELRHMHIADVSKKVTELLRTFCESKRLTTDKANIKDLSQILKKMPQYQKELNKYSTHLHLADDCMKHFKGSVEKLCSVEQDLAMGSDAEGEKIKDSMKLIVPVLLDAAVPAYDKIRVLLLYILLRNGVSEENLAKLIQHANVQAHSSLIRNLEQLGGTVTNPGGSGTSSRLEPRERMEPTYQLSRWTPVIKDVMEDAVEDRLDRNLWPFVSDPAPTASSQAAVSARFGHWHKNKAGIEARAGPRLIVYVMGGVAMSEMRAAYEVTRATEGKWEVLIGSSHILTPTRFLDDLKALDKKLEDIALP

This is one part of the list.

Compound in the first assay: C1=CC(=CC=C1C2=NC3=C(N2)C=C(C=C3)C(=O)N)OC4=CC=C(C=C4)Cl
Description: log2 fold change, soluble protein after heating vs DMSO (PISA); higher = thermal stabilisation; K562 cells, 10 uM, 30 min; active = over 0.2 and 3.5 SD of the protein, either way, in both replicates (recomputed). The essentials:
(§1)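 K562 cells (2×10^6 cells/mL) were treated with 10 μM compound for 30 min, and aliquots were heated for 3 min over 48°C-58°C. Pooled aliquots were extracted in PBS with 0.5% NP-40 at 4°C, and the supernatant after 21,000xg for 90 min was measured by TMTpro 16plex LC-MS/MS with channel sums equalised. Reported thermal stability, relative to control samples and from duplicates, is a log2 fold change.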
Consider SYNE1 (UniProt Q8NF91), for which the log2 fold change was inactive: -0.132.

In the case of STX17 (UniProt P56962), the log2 fold change was inactive: 0.015.

Consider SUPT6H (UniProt Q7KZ85), for which the log2 fold change was inactive: -0.057.

For the target SYAP1 (UniProt Q96A49), the log2 fold change is inactive: -0.021.

Turning to TAL1 (UniProt P17542), the log2 fold change is inactive: -0.014.

In the case of SUPV3L1 (UniProt Q8IYB8), the log2 fold change was inactive: -0.019.

In the case of TBC1D10B (UniProt Q4KMP7), the log2 fold change was inactive: 0.039.

Consider TARBP2 (UniProt Q15633), for which the log2 fold change is inactive: 0.027.

Take TATDN3 isoform 3 (UniProt Q17R31): the log2 fold change was inactive: -0.005.

With SVIP (UniProt Q8NHG7), the log2 fold change was inactive: -0.037.

In the case of STRIP1 (UniProt Q5VSL9), the log2 fold change was inactive: -0.011.

Consider SYNJ2 (UniProt O15056), for which the log2 fold change is inactive: -0.009.

As to STK38 (UniProt Q15208), the log2 fold change was inactive: -0.021.

As to TACC1 isoform 2 (UniProt O75410), the log2 fold change is inactive: -0.006.

For SYNCRIP (UniProt O60506), the log2 fold change is inactive: 0.064.

As to STUB1 (UniProt Q9UNE7), the log2 fold change was inactive: 0.064.

Compound in another assay: C1=CC2=C(C=CC(=C2)/C=C\3/C(=O)NC(=NCC4=CC=CS4)S3)N=C1
The assay is described as above. The essentials:
as §1
With STOML2 (UniProt Q9UJZ1), the log2 fold change was inactive: -0.001.

As for STRBP (UniProt Q96SI9), the log2 fold change is inactive: -0.039.

In the case of STRIP2 (UniProt Q9ULQ0), the log2 fold change is inactive: -0.008.

For SUOX (UniProt P51687), the log2 fold change was inactive: 0.027.

As to TACO1 (UniProt Q9BSH4), the log2 fold change was inactive: 0.169.

With SUN2 (UniProt Q9UH99), the log2 fold change was inactive: -0.012.

As for TARSL2 (UniProt A2RTX5), the log2 fold change was inactive: 0.037.

Regarding TAX1BP1 (UniProt Q86VP1), the log2 fold change is inactive: 0.035.

For TAF4 (UniProt O00268), the log2 fold change is inactive: 0.127.

Regarding STX12 (UniProt Q86Y82), the log2 fold change was inactive: -0.005.

In the case of STK3 isoform 2 (UniProt Q13188), the log2 fold change was inactive: 0.025.

On to TAGLN2 isoform 2 (UniProt P37802), for which the log2 fold change was inactive: -0.043.

On to TANK (UniProt Q92844), for which the log2 fold change was inactive: 0.002.

For the target SUPT4H1 (UniProt P63272), the log2 fold change is inactive: -0.085.

With SYPL1 (UniProt Q16563), the log2 fold change is inactive: 0.004.

Regarding STX4 (UniProt Q12846), the log2 fold change is inactive: -0.066.

As to TBC1D13 (UniProt Q9NVG8), the log2 fold change is inactive: 0.065.

As to SUCLG1 (UniProt P53597), the log2 fold change was inactive: 0.012.

Turning to TAF8 isoform 2 (UniProt Q7Z7C8), the log2 fold change was inactive: 0.077.

For the target STXBP2 isoform 3 (UniProt Q15833), the log2 fold change was inactive: 0.096.

Regarding TAF15 (UniProt Q92804), the log2 fold change is inactive: -0.016.

For the target SUB1 (UniProt P53999), the log2 fold change was inactive: -0.003.

With TARS2 (UniProt Q9BW92), the log2 fold change was inactive: 0.086.

As for SYNE1 (UniProt Q8NF91), the log2 fold change was inactive: 0.132.

Turning to STX17 (UniProt P56962), the log2 fold change was inactive: 0.041.

Turning to SUPT6H (UniProt Q7KZ85), the log2 fold change is inactive: 0.155.

As to SYAP1 (UniProt Q96A49), the log2 fold change was inactive: 0.

Consider TAL1 (UniProt P17542), for which the log2 fold change is inactive: -0.053.

For the target SUPV3L1 (UniProt Q8IYB8), the log2 fold change was inactive: -0.006.

Turning to TBC1D10B (UniProt Q4KMP7), the log2 fold change was inactive: -0.008.

Regarding TARBP2 (UniProt Q15633), the log2 fold change is inactive: 0.032.

On to TATDN3 isoform 3 (UniProt Q17R31), for which the log2 fold change is inactive: 0.029.

Consider SVIP (UniProt Q8NHG7), for which the log2 fold change is inactive: 0.076.

STRIP1 (UniProt Q5VSL9): the log2 fold change was inactive: -0.015.

Regarding SYNJ2 (UniProt O15056), the log2 fold change is inactive: -0.008.

As to STK38 (UniProt Q15208), the log2 fold change is inactive: 0.014.

On to TACC1 isoform 2 (UniProt O75410), for which the log2 fold change is inactive: 0.021.

As to SYNCRIP (UniProt O60506), the log2 fold change was inactive: -0.011.

Regarding STUB1 (UniProt Q9UNE7), the log2 fold change was inactive: -0.064.
